Test results from ChEMBL document CHEMBL4303122, “Identification of potential treatments for COVID-19 through artificial intelligence-enabled phenomic analysis of human cells infected with SARS-CoV-2” (2020).
The full ranking holds about 1,600 compounds; the median of “Hit score” is about 0.13, and the highest 2% start at about 0.46. The list shows a part of the results.

Each molecule was assayed on SARS-CoV-2 (assay: Antiviral activity against SARS-CoV-2 (USA-WA1/2020 strain) measured by imaging in HRCE cells at MOI 0.4 after 96 hrs (reported as hit score from 0-1 for on-disease vs off-disease activity: scores >0.6 considered hits)).
Format: functional, Homo sapiens

Row | Structure (SMILES) | Hit score
1 | CC[C@H]1OC(=O)[C@H](C)C(=O)[C@H](C)[C@@H](O[C@@H]2O[C@H](C)C[C@H](N(C)C)[C@H]2O)[C@](C)(OC)C[C@@H](C)C(=O)[C@H](C)[C@H]2N(CCCCn3cnc(-c4cccnc4)c3)C(=O)O[C@]12C [TELITHROMYCIN] | 0.2926
2 | CN1C[C@H](C(=O)N[C@]2(C)O[C@@]3(O)[C@@H]4CCCN4C(=O)[C@H](Cc4ccccc4)N3C2=O)C[C@@H]2c3cccc4[nH]cc(c34)C[C@H]21 [DIHYDROERGOTAMINE] | -0.0003044
3 | COc1ccc2[nH]cc(CCNC(C)=O)c2c1 [MELATONIN] | 0.1403
4 | O=C([O-])c1ccccc1O.[Na+] [SODIUM SALICYLATE] | 0.1888
5 | Cc1ccc(C(=O)c2cc(O)c(O)c([N+](=O)[O-])c2)cc1 [TOLCAPONE] | 0.0005284
6 | CCCC(CCC)C(=O)O[C@H]1C[C@H]2CC[C@@H](C1)[N+]2(C)C.[Br-] [ANISOTROPINE METHYLBROMIDE] | 0.2494
7 | COc1ccc(C(=O)NCc2cccnc2)cc1C(=O)NCc1cccnc1 [PICOTAMIDE] | 0.2287
8 | CC(=O)N[C@@H](CC(=O)N[C@@H](CCC(=O)O)C(=O)O)C(=O)O [SPAGLUMIC ACID] | 0.2385
9 | Cc1ccc(S(=O)(=O)NC(=O)NN2CC3CCCC3C2)cc1 (centres undefined) [GLICLAZIDE] | 0.08068
10 | CCC(C)C(C(=O)OCC[N+](C)(CC)CC)c1ccccc1 (centres undefined) [VALETHAMATE] | 0.1761
11 | C=C1CC[C@H](O)C/C1=C/C=C1\CCC[C@]2(C)[C@@H]([C@H](C)CCCC(C)C)CC[C@@H]12 [CHOLECALCIFEROL] | 0.2186
12 | COc1nc(C)nc(Cl)c1NC1=NCCN1 [MOXONIDINE] | 0.157
13 | CC(C)OC(=O)CCC/C=C\C[C@@H]1[C@@H](/C=C/C(F)(F)COc2ccccc2)[C@H](O)C[C@@H]1O [TAFLUPROST] | 0.14
14 | CCn1cc(C(=O)O)c(=O)c2cnc(N3CCNCC3)nc21 [PIPEMIDIC ACID] | 0.2033
15 | COc1cc2nc(N3CCN(C(=O)c4ccco4)CC3)nc(N)c2cc1OC [PRAZOSIN] | 0.07667
16 | NCCS(=O)(=O)O [TAURINE] | 0.2637
17 | Oc1c(I)cc(I)c2cccnc12 [IODOQUINOL] | 0.1688
18 | O=C(CCCN1CC=C(n2c(=O)[nH]c3ccccc32)CC1)c1ccc(F)cc1 [DROPERIDOL] | 0.1717
19 | CCN(CC)CCNC(=O)c1cc(S(C)(=O)=O)ccc1OC [TIAPRIDE] | 0.1795
20 | CCn1cc(C(=O)O)c(=O)c2ccc(C)nc21 [NALIDIXIC ACID] | 0.03233
21 | CCCCCC(C)N (centres undefined) [TUAMINOHEPTANE] | 0.3062
22 | COc1ccc2cc(CCC(C)=O)ccc2c1 [NABUMETONE] | 0.01673
23 | C#CCN(C)Cc1ccccc1 [PARGYLINE] | 0.1862

Part of the list above, comma-delimited.
Row,Structure (SMILES),Hit score
6,CCCC(CCC)C(=O)O[C@H]1C[C@H]2CC[C@@H](C1)[N+]2(C)C.[Br-] [ANISOTROPINE METHYLBROMIDE],0.2494
7,COc1ccc(C(=O)NCc2cccnc2)cc1C(=O)NCc1cccnc1 [PICOTAMIDE],0.2287
8,CC(=O)N[C@@H](CC(=O)N[C@@H](CCC(=O)O)C(=O)O)C(=O)O [SPAGLUMIC ACID],0.2385

Next results.

Row | Structure (SMILES) | Hit score
24 | Oc1cc(Cl)ccc1Oc1ccc(Cl)cc1Cl [TRICLOSAN] | 0.1243
25 | CN(C)CCc1c[nH]c2ccc(Cn3cncn3)cc12 [RIZATRIPTAN] | 0.02516
26 | OCCN1CCN(CCCN2c3ccccc3Sc3ccc(Cl)cc32)CC1 [PERPHENAZINE] | 0.1094
27 | Nc1ccc(S(=O)(=O)c2ccc(N)cc2)cc1 [DAPSONE] | 0.2677
28 | Nc1ccc(C(=O)NCC(=O)O)cc1 [AMINOHIPPURIC ACID] | 0.08913
29 | CCCCC(=O)O[C@]1(C(=O)CO)[C@@H](C)C[C@H]2[C@@H]3CCC4=CC(=O)C=C[C@]4(C)[C@@]3(F)[C@@H](O)C[C@@]21C [BETAMETHASONE VALERATE] | -0.1439
30 | N=C(N)NCC1COC2(CCCCC2)O1 (centres undefined) | 0.1079
31 | Cc1ncc(CSSCc2cnc(C)c(O)c2CO)c(CO)c1O [PYRITINOL] | 0.2567
32 | CC[C@@H](CO)NC(=O)[C@@H]1C=C2c3cccc4[nH]cc(c34)C[C@H]2N(C)C1 [METHYLERGONOVINE] | 0.219
33 | CC(=O)Oc1cccc2c1C(=O)c1c(OC(C)=O)cc(C(=O)O)cc1C2=O [DIACEREIN] | 0.1572
34 | CCCCC(C)(O)C/C=C/[C@H]1[C@H](O)CC(=O)[C@@H]1CCCCCCC(=O)OC (some centres undefined) [MISOPROSTOL] | -0.07952
35 | CC1(C)[C@@H](O)CC[C@]2(C)[C@H]3C(=O)C=C4[C@@H]5C[C@@](C)(C(=O)O)CC[C@]5(C)CC[C@@]4(C)[C@]3(C)CC[C@@H]12 [ENOXOLONE] | 0.1505
36 | N[C@H]1C(O)O[C@H](CO)[C@@H](O)[C@@H]1O (some centres undefined) [GLUCOSAMINE] | 0.1709
37 | C/C(=C\c1csc(C)n1)[C@@H]1C[C@@H]2O[C@]2(C)CCC[C@H](C)[C@H](O)[C@@H](C)C(=O)C(C)(C)[C@@H](O)CC(=O)N1 [IXABEPILONE] | 0.1281
38 | CN1CCCC(n2nc(Cc3ccc(Cl)cc3)c3ccccc3c2=O)CC1 (centres undefined) [AZELASTINE] | 0.009467
39 | CN(C)CCC[C@@]1(c2ccc(F)cc2)OCc2cc(C#N)ccc21 [ESCITALOPRAM] | -0.002404
40 | O=C(O[C@H]1CN2CCC1CC2)N1CCc2ccccc2[C@@H]1c1ccccc1 [SOLIFENACIN] | 0.03148
41 | NC(=O)N/N=C/c1ccc([N+](=O)[O-])o1 [NITROFURAZONE] | 0.1562
42 | CC(C)C[C@H](NC(=O)[C@H](CCc1ccccc1)NC(=O)CN1CCOCC1)C(=O)N[C@@H](Cc1ccccc1)C(=O)N[C@@H](CC(C)C)C(=O)[C@@]1(C)CO1 [CARFILZOMIB] | -0.2765
43 | CN1CCCCC1CCN1c2ccccc2Sc2ccc([S+](C)[O-])cc21 (centres undefined) [MESORIDAZINE] | 0.07548
44 | Cc1c(S(=O)(=O)[O-])oc2c1C(=O)C(=O)c1c-2ccc2c1CCCC2(C)C.[Na+] [SODIUM TANSHINONE IIA SULFONATE] | 0.113
45 | CO[C@@H]1[C@@H](OC(N)=O)[C@@H](O)[C@H](Oc2ccc3c(O)c(NC(=O)c4ccc(O)c(CC=C(C)C)c4)c(=O)oc3c2C)OC1(C)C [NOVOBIOCIN] | 0.09215
46 | N#Cc1cc2c(cc1[N+](=O)[O-])=NC(=O)C(=O)N=2 | 0.1284

Row | Structure (SMILES) | Hit score
47 | C#C[C@]1(O)CC[C@H]2[C@@H]3CCc4cc(O)ccc4[C@H]3CC[C@@]21C [ETHINYL ESTRADIOL] | 0.06314
48 | NC(=O)c1cnc2[nH]ccc2c1N[C@@H]1[C@@H]2CC3C[C@H]1C[C@@](O)(C3)C2 [PEFICITINIB] | 0.009204
49 | NNc1nncc2ccccc12 [HYDRALAZINE] | 0.1818
50 | CC(=O)OCC(CCn1cnc2cnc(N)nc21)COC(C)=O [FAMCICLOVIR] | 0.02613
51 | CN1CCN(c2c(F)cc3c(=O)c(C(=O)O)cn(CCF)c3c2F)CC1 [FLEROXACIN] | 0.1213
52 | COc1ccc(CCN(C)CCCC(C#N)(c2cc(OC)c(OC)c(OC)c2)C(C)C)cc1OC (centres undefined) [GALLOPAMIL] | 0.1501
53 | C1CNCCN1 [PIPERAZINE] | 0.1799
54 | CC(/C=C1\SC(=S)N(CC(=O)O)C1=O)=C\c1ccccc1 | 0.05307
55 | Cc1nc(=O)c2cc(CN(C)c3ccc(C(=O)N[C@@H](CCC(=O)O)C(=O)O)s3)ccc2[nH]1 [RALTITREXED] | 0.07535
56 | CN1CCN(CCCN2c3ccccc3Sc3ccc(Cl)cc32)CC1 [PROCHLORPERAZINE] | 0.01288
57 | CNCC(O)c1ccc(OC(=O)C(C)(C)C)c(OC(=O)C(C)(C)C)c1 (centres undefined) [DIPIVEFRIN] | -0.2176
58 | CN(C)c1cc(CNCC(C)(C)C)c(O)c2c1C[C@H]1C[C@H]3[C@H](N(C)C)C(O)=C(C(N)=O)C(=O)[C@@]3(O)C(O)=C1C2=O [OMADACYCLINE] | 0.1584
59 | CC(C)NC[C@@H](O)COc1cccc2ccccc12 [DEXPROPRANOLOL] | 0.4686
60 | CCc1cn([C@H]2C[C@H](O)[C@@H](CO)O2)c(=O)[nH]c1=O [EDOXUDINE] | 0.06754
61 | O=c1[nH]c(=O)n(C2CCCO2)cc1F (centres undefined) [TEGAFUR] | 0.09063
62 | O=C(CNc1cccc(Cl)c1)NC1CCCN(c2ncnc3[nH]ccc23)C1 (centres undefined) | 0.1071
63 | Cc1c(N(C)CS(=O)(=O)O)c(=O)n(-c2ccccc2)n1C [METAMIZOLE] | 0.2295
64 | CCO.C[C@H]1c2cccc(O)c2C(=O)C2=C(O)[C@]3(O)C(=O)C(C(N)=O)=C(O)[C@@H](N(C)C)[C@@H]3[C@@H](O)[C@@H]21.C[C@H]1c2cccc(O)c2C(=O)C2=C(O)[C@]3(O)C(=O)C(C(N)=O)=C(O)[C@@H](N(C)C)[C@@H]3[C@@H](O)[C@@H]21.Cl.Cl.O [DOXYCYCLINE HYCLATE] | 0.07535
65 | C[C@H]1CNCCCN1S(=O)(=O)c1cccc2cncc(F)c12 | 0.01241
66 | O=C(O)c1cc(-c2ccccc2)nc2ccccc12 [CINCHOPHEN] | 0.02527
67 | [H]/C=C/[C@@]1(C)CC(=O)[C@]2(O)[C@@]3(C)[C@@H](O)CCC(C)(C)[C@@H]3[C@H](OC(=O)CCN(C)C)[C@H](OC(C)=O)[C@@]2(C)O1 | -0.001781
68 | CN(C)c1nc(N(C)C)nc(N(C)C)n1 [ALTRETAMINE] | 0.1959
69 | N[C@H](C(=O)O)[C@H](O)c1ccc(O)c(O)c1 [DROXIDOPA] | 0.07126
